Literature values in patent US20220040100A1, “Stable Acyclovir Sodium Parenteral Formulation” (RK Pharma Solutions LLC, priority 2020, published 2022).
Structures can show the parent of a compound that is named as a salt.

Settings: 25° C.

- maximum solubility in water: exceeds 100 mg/mL
Compound: Nc1nc2c(ncn2COCCO)c(=O)[nH]1 [Acyclovir sodium, 2-amino-1,9-dihydro-9-[(2-hydroxyethoxy)methyl]-6H-purin-6-one monosodium salt]
